Results: the supplement of paper PMC11006884
This is a selection; strong and weak results do not stand in their true shares.

Protein sequences, listed by entry. Tags and fused reporters are not part of them. Lines headed by an entry give the natural chain unless they say otherwise; changes in a name come on top.
UniProt P61081: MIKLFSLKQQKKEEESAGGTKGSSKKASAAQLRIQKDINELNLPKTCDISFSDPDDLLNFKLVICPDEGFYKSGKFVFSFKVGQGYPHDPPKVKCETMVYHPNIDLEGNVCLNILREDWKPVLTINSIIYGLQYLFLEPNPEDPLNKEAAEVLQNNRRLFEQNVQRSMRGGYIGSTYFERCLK
UniProt P52888, whole entry, looked up: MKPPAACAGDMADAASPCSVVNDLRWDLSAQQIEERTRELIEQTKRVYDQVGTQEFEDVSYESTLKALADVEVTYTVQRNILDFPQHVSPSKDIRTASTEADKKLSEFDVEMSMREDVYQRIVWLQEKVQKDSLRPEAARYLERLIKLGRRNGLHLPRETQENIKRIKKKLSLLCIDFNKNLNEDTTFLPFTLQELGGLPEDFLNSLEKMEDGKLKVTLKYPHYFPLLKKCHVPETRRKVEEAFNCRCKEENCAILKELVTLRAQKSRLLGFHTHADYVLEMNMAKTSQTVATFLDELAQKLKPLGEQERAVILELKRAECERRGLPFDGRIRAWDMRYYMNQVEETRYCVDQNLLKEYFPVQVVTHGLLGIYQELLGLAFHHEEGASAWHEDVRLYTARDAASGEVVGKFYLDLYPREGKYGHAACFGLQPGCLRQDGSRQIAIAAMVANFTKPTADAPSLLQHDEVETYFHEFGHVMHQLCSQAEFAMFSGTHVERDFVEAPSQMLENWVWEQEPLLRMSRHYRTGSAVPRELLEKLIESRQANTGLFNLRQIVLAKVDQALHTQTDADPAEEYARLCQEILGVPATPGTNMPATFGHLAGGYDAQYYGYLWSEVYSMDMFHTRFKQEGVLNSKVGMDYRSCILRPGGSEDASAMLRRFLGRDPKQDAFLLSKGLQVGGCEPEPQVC
UniProt P55265: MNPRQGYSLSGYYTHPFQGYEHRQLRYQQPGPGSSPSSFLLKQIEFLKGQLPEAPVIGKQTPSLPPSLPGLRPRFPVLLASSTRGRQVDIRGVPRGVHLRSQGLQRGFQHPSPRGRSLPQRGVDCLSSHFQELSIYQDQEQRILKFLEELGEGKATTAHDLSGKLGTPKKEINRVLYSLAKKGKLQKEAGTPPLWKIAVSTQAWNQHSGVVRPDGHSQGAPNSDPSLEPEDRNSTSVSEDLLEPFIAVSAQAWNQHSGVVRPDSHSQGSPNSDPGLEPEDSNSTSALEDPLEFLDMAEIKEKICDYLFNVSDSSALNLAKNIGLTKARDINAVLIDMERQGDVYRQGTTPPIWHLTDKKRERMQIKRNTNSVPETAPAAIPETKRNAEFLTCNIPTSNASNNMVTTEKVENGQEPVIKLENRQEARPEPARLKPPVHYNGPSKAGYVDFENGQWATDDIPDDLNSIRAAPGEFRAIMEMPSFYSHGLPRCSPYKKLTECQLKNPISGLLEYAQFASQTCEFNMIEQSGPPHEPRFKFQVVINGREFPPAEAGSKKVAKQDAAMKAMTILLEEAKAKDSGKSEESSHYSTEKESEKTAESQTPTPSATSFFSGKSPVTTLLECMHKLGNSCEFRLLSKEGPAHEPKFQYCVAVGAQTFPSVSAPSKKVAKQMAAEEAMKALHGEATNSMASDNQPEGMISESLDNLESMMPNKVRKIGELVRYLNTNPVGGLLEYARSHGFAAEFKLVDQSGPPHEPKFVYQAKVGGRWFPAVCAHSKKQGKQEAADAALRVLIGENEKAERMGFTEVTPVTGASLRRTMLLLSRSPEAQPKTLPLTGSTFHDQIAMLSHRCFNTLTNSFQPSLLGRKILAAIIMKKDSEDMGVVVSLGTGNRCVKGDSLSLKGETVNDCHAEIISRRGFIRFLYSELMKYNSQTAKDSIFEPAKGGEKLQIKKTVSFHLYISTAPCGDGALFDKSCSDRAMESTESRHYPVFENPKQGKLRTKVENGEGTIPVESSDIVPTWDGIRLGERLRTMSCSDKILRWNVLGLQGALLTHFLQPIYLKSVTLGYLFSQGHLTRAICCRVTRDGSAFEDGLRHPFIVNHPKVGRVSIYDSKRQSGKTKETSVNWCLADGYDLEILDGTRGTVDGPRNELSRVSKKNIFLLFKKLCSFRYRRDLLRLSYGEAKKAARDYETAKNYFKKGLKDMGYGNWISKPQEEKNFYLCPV
UniProt P53396: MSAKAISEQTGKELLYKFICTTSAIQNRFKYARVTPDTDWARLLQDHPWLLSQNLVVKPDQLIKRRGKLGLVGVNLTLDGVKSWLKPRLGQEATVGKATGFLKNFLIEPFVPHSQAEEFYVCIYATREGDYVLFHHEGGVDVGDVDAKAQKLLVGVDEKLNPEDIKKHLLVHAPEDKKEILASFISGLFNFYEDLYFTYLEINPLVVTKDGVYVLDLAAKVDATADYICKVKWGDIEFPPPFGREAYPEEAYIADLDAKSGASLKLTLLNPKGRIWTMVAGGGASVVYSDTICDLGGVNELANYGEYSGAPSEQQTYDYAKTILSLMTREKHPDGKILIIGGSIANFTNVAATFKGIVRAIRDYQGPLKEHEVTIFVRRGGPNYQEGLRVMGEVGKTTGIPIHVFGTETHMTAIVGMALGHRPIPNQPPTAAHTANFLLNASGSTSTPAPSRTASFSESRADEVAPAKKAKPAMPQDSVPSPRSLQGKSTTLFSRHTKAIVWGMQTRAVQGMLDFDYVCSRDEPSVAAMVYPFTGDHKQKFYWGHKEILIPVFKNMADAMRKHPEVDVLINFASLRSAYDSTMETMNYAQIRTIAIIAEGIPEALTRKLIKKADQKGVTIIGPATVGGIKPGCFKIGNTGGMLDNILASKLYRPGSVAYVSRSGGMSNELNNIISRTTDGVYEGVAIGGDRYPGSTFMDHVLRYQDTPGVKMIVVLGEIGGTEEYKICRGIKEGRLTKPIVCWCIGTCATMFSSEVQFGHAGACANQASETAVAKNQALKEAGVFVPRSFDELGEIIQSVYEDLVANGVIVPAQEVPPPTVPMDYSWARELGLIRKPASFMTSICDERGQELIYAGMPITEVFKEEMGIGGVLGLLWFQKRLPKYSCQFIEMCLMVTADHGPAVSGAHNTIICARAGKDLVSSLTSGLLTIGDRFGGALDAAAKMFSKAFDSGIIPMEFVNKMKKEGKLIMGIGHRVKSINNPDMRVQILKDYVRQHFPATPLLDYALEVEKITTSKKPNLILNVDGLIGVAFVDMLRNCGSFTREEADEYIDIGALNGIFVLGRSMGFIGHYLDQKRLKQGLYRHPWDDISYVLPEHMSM
UniProt P60891: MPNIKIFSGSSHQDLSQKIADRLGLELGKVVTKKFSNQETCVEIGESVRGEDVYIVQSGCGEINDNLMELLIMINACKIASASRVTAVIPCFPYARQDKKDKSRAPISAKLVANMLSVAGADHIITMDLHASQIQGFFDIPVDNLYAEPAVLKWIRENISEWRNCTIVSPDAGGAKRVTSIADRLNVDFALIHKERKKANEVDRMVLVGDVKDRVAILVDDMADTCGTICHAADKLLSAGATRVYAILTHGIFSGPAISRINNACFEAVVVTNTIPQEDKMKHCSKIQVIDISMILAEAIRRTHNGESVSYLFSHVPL
UniProt P60174, whole entry, looked up: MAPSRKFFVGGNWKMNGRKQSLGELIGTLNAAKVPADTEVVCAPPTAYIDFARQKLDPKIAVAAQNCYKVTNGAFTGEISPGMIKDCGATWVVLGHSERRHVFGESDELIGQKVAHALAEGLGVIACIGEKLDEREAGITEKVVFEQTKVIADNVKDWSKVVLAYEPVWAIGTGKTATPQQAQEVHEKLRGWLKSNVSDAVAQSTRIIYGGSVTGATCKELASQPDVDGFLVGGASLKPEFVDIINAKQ
UniProt P51991: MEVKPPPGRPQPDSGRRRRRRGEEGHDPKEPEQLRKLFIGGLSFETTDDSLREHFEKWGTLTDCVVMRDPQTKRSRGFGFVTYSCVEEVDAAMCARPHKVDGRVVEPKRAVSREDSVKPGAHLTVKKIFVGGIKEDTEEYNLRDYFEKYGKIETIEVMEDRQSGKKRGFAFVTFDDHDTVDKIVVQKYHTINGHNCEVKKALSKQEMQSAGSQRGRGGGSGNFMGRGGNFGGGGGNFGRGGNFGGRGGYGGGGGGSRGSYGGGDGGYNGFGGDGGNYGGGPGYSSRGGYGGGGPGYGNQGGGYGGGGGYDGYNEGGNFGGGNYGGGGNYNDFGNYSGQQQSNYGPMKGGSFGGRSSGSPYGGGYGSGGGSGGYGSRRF
UniProt P60981: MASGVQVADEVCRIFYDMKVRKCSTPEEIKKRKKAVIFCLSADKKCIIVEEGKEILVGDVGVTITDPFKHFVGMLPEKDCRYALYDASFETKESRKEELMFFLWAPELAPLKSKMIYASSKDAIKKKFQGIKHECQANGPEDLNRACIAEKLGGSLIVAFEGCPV
UniProt P52701: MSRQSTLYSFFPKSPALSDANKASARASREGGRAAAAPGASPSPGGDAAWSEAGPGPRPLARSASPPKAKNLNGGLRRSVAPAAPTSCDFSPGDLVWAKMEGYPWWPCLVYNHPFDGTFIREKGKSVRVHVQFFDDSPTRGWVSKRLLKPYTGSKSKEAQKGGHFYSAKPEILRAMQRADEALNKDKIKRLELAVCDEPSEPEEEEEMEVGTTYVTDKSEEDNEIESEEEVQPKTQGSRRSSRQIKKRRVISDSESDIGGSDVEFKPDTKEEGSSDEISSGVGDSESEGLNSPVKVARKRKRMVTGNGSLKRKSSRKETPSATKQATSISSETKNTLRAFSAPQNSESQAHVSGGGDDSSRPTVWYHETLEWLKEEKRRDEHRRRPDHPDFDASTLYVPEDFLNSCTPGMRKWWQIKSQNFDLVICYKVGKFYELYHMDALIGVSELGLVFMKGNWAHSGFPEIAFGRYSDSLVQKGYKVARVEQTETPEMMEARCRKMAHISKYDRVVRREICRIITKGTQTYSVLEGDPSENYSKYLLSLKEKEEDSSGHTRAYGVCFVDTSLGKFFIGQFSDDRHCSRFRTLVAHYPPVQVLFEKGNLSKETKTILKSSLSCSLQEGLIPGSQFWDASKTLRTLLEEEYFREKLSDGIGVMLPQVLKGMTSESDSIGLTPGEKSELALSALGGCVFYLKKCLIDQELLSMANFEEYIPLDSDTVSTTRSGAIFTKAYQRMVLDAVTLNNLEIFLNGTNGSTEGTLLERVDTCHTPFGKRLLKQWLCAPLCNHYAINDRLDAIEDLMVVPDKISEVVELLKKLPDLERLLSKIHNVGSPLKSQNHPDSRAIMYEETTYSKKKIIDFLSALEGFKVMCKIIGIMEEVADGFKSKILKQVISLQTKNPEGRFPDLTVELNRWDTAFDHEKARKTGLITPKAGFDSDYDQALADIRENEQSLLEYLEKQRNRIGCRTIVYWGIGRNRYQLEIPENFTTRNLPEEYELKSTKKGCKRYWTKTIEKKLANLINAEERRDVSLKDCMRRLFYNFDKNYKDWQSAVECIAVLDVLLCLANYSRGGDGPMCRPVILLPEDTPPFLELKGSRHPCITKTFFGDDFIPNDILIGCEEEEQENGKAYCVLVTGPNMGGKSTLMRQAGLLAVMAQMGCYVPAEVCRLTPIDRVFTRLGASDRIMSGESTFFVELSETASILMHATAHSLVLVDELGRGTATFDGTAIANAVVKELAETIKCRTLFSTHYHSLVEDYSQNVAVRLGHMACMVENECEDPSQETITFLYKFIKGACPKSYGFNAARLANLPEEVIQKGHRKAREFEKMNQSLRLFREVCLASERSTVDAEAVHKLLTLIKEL
UniProt P56192: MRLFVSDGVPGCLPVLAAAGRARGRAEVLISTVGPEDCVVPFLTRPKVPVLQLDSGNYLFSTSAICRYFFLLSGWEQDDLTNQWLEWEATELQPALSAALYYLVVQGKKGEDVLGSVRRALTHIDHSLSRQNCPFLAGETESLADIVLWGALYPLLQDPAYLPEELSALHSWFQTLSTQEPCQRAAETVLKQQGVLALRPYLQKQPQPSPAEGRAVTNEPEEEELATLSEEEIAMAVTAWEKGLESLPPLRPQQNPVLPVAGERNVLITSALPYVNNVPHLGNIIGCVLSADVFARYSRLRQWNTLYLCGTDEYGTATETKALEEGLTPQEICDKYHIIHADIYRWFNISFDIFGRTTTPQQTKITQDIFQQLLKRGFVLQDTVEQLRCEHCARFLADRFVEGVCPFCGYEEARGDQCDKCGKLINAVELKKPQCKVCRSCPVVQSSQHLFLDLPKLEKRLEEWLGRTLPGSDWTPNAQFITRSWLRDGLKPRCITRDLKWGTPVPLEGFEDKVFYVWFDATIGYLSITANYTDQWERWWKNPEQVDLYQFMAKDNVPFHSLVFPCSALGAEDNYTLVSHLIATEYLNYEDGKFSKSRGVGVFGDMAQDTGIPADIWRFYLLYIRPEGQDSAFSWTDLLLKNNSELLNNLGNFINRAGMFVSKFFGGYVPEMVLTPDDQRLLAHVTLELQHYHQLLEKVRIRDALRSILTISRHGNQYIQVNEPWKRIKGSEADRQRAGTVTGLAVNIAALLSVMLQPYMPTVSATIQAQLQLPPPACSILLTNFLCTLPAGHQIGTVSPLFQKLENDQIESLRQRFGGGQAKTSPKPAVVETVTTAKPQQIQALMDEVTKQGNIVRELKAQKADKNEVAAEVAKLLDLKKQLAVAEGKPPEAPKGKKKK

Compound: COC(=O)C#Cc1ccccc1 [methyl 3-phenylpropiolate]
Experiment: log2 ratio of iodoacetamide-alkyne labeling of the cysteine site, DMSO over compound (competition); higher = stronger covalent engagement of the cysteine by the compound, active = 1 or more
Conditions: 500 µM; treatment time 1 h; system: HEK293T cell lysate
Method in brief: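 Electrophile (500 µM) or vehicle was added to HEK293T lysate (2 mg/mL) for 1 h at ambient temperature before iodoacetamide alkyne labelling (1 h) and click coupling to sCIP-TMT reagents. After pooling, overnight trypsin digestion at 37 °C, streptavidin enrichment and acid elution, peptides were measured by Orbitrap Eclipse LC-MS/MS with FAIMS and quantified in FragPipe. Each cysteine's log2 competition ratio compares mean control-channel with mean compound-channel reporter intensity, control over compound. Data came from duplicate channels across three replicates, excluding cysteines quantified in only one replicate.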

log2 ratio of iodoacetamide-alkyne labeling, inactive:
UniProt P55196_C1684 0.266
HNRNPH2 C22 (UniProt P55795) -0.259
UniProt P61081_C65 -0.0454
THOP1 C7 (UniProt P52888) 0.539
ADAR C630 (UniProt P55265) 0.457
ACLY C845 (UniProt P53396) 0.135
UniProt P60891_C230 0.704
TPI1 C79 (UniProt P60174) 0.149
UniProt P60866_C70 0.806
HNRNPA3 C196 (UniProt P51991) -0.0216
DSTN C12 (UniProt P60981) -0.0619
UniProt P61978_C132 0.275
HNRNPA3 C94 (UniProt P51991) 0.122
MVD C386 (UniProt P53602) 0.153
ADAR C392 (UniProt P55265) 0.693
NUBP1 C31 (UniProt P53384) 0.626
MSH6 C108 (UniProt P52701) 0.0472
KPNA2 C223 (UniProt P52292) 0.209
NUBP1 C256 (UniProt P53384) 0.105
UniProt P61160_C20 0.286
MARS C441 (UniProt P56192) -0.00716
HNRNPA3 C85 (UniProt P51991) 0.23
BLM C607 (UniProt P54132) 0.145

Reprinted at random: 2 records from the list
log2 ratio of iodoacetamide-alkyne labeling, inactive:
BLM C607 (UniProt P54132) 0.145
TPI1 C79 (UniProt P60174) 0.149
